Measurements: PMC5309860 (2017)
These are yes or no findings as the source states them, for the method shown. In cells and extracts the contact can be indirect. Some binding calls cover weakened binding; strength is not graded here. Where a sequence is shown, tags or fusion partners need not be part of it. Each block holds one molecule with its values, some of them ahead of it.

The chains behind the UniProt entries cited, without tags or fusion partners. Where a name states a change or a piece, a line headed by the entry shows the natural chain unless it says otherwise.
UniProt P49407: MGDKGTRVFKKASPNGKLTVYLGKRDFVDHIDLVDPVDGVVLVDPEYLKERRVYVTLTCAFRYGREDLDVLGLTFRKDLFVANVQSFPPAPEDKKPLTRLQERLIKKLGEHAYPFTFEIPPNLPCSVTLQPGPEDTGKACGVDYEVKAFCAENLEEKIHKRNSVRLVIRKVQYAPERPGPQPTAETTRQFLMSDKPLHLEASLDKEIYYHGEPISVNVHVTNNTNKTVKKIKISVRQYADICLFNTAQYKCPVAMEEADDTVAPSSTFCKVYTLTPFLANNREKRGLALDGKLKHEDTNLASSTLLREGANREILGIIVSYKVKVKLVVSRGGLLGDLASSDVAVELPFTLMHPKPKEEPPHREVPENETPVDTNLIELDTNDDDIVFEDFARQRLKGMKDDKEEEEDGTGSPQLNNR
UniProt P25095: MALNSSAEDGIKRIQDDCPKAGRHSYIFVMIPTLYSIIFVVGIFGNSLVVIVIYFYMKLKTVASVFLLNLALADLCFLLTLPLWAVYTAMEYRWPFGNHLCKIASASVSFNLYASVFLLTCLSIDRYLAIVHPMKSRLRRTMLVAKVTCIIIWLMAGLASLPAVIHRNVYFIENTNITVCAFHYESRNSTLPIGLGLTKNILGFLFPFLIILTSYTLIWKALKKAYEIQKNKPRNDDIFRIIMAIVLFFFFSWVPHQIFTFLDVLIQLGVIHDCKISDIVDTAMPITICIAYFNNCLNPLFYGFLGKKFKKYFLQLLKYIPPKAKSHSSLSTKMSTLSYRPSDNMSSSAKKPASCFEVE
UniProt P32121: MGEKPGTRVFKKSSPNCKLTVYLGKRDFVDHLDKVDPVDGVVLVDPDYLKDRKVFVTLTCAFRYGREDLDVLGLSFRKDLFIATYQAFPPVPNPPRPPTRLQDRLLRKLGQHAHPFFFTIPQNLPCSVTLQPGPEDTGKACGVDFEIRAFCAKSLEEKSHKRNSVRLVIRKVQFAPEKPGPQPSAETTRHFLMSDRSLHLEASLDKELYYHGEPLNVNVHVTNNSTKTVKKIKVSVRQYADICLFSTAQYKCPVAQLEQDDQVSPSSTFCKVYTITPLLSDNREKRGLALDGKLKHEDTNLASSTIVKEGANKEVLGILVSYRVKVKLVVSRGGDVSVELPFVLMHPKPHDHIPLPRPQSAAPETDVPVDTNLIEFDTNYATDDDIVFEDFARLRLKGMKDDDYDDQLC

Columns and labels:
[1] = target: HA-β-arrestin-1 (wild type) (UniProt P49407); assay: co-IP; HEK293 cells co-transfected with Flag-AT1R-cherry, TRPC3-GFP (WT/truncations) and HA-β-arrestin-1 (WT/truncations/mutants); starved 12 h, stimulated 1 min with AngII (100 nM), TRV120055 (30 nM) or TRV120027 (100 nM); lysates precipitated with antibody-conjugated beads overnight at 4 °C, western …
TRPC3-GFP (wild type) = target: T1, TRPC3-GFP (wild type) (UniProt Q13507); assay: as above
T1 sequence: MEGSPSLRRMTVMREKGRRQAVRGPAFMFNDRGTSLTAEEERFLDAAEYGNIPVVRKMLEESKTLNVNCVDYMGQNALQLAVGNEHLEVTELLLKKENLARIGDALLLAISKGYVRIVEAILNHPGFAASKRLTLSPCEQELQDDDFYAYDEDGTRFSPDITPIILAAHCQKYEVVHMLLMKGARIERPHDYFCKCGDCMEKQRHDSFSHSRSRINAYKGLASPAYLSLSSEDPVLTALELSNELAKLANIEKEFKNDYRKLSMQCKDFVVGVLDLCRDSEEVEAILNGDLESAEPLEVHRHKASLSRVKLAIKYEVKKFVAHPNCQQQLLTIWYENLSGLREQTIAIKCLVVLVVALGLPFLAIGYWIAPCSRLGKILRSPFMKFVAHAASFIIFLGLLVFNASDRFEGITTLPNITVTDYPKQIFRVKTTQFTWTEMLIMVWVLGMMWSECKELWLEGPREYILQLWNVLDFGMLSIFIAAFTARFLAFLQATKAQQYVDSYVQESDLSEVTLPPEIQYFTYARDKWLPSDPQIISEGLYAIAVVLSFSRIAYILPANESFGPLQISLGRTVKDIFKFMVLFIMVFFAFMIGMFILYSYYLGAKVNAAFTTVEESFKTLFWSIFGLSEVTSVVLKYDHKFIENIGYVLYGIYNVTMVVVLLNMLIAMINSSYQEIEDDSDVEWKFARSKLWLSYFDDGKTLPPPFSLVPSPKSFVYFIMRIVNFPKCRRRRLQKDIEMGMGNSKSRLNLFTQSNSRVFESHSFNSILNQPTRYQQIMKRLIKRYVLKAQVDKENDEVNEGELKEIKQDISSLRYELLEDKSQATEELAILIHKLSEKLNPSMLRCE

TRPC3-YFP = target: T2, TRPC3-YFP (UniProt Q13507); assay: FRET or BRET; intermolecular BRET in HEK293 cells with Flag-AT1R, Luc-β-arrestin-1 or Luc-β-arrestin-2 and TRPC3-YFP, TRPV1-YFP or TRPC6-YFP; AngII (100 nM) or TRV120027 (100 nM) 1 min at 37 °C; coelenterazine h 5 μM
T2 sequence: T1 sequence

Flag-AT1R-cherry [2] = target: Flag-AT1R-cherry (UniProt P25095); assay: co-IP; HEK293 cells co-transfected with Flag-AT1R-cherry, TRPC3-GFP (WT/truncations) and HA-β-arrestin-1 (WT/truncations/mutants); starved 12 h, stimulated 1 min with AngII (100 nM), TRV120055 (30 nM) or TRV120027 (100 nM); lysates precipitated with antibody-conjugated beads overnight at 4 °C, western …
[3] = target: HA-β-arrestin-1 (wild type) (UniProt P49407); assay: co-IP; sequential: HEK293 cells with Flag-AT1R-cherry, HA-β-arrestin-1 and TRPC3-GFP, TRV120027 (100 nM) or vehicle 1 min; plasma membrane fractions; anti-Flag M2 agarose, elution with 3*Flag peptide, then anti-HA or anti-GFP beads; western blot
Flag-AT1R-cherry [4] = target: Flag-AT1R-cherry (UniProt P25095); assay: as above

Molecule: HA-β-arrestin-1 1–367 (from UniProt P49407 1-367) (domain or fragment)
binding (TRPC3-GFP (wild type)): binds

Molecule: Luc-β-arrestin-1 (from UniProt P49407 1-418)
binding (TRPC3-YFP): binds

B1: TRPC3-GFP (wild type) (protein, UniProt Q13507-3 1-848)
chain: T1 sequence
binding [1]: binds | binding (Flag-AT1R-cherry [2]): binds | binding [3]: binds | binding (Flag-AT1R-cherry [4]): binds

Further lines, results first:

binding [1]: binds | binding (TRPC3-GFP (wild type)): binds
Molecule: Flag-AT1R-cherry (from UniProt P25095 1-359) (receptor)

binding (TRPC3-GFP (wild type)): binds
Molecule: HA-βarr2N-βarr1C (from UniProt P32121 1-321; P49407 320-418)
